This assay addresses T1, TAK1 binding protein 1 (UniProt Q15750).
T1 sequence: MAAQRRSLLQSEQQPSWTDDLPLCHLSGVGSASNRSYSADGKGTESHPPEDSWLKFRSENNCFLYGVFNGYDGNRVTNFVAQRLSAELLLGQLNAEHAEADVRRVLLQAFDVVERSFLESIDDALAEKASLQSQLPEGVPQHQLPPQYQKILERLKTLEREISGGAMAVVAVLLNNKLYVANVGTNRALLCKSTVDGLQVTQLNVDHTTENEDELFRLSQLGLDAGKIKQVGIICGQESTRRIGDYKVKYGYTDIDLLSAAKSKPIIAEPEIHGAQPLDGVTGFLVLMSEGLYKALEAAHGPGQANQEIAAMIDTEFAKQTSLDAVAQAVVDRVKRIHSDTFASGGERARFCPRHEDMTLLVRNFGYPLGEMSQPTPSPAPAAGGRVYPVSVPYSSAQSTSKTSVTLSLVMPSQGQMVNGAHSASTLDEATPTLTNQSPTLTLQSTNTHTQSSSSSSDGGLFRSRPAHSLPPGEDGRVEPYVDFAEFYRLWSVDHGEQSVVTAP
Briefly: co-IP.

Sequences of proteins named here, by UniProt entry; tags and fusion partners are left off.
UniProt Q06210: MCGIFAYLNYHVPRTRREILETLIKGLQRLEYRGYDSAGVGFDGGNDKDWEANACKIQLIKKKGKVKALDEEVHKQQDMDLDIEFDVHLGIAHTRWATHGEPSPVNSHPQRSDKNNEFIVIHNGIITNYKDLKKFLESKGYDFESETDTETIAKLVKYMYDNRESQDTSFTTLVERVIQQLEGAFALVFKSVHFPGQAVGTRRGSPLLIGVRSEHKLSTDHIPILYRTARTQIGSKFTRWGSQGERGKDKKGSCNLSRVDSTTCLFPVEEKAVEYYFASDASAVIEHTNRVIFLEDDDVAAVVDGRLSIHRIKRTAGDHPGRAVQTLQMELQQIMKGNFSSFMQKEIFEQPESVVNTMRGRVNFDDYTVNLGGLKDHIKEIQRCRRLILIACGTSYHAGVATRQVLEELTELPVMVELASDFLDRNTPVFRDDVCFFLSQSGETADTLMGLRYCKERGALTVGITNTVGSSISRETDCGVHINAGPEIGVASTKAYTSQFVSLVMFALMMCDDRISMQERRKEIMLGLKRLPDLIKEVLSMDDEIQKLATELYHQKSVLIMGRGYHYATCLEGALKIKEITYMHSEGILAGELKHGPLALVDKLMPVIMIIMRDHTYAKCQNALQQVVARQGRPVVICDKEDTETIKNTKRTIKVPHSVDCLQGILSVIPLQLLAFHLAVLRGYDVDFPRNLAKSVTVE

These are yes or no findings as the source states them, for the method shown. Binding seen in cells or lysates may run through a third protein. Some results given as binding are weak or reduced against the parent protein; the word gives no strength.

Consider “glutamine-fructose-6-phosphate aminotransferase 1 (from UniProt Q06210 1-699) (enzyme)”, for which the binding result is given as “binds”.

Source of the values: publication doi:10.1101/2023.07.16.549182.
